Results taken from patent US20130260436A1, “Methods of Identifying and Characterizing Natural Product Gene Clusters” (Victoria LInk Limited, priority 2010, published 2013).
The name of at least one read-out is uncertain.

Test: BpsA coupled assay for PPTase kinetic parameters, CoA as variable substrate
Type: biochemical
Details: BpsA fixed at 0.83 μM
Description: Having established a linear relationship between concentration of holo-BpsA and the apparent rate of indigoidine synthesis in aqueous solution, we next wanted to test whether it was possible to evaluate PPTase activity by using acceleration of the rate of indigoidine synthesis as a measure of the rate of 4′-PP attachment to apo-BpsA. Replicate solutions containing PPTase and all of the substrates necessary for both phosphopantetheinylation and indigoidine synthesis were established using a twofold serial dilution series of CoA (0.024-50 μM) in ninety six well plates. Reactions were initiated by addition of 0.83 μM BpsA each well of a dilution series, and absorbance at 590 nm was measured continuously. Under these conditions, the pigment synthesis reaction undergoes an initial acceleration phase as apo-BpsA is converted to holo-BpsA by the PPTase. […]
A590 values were then recorded as previously described. […] A590 values were then recorded as previously described. For derivation of PPTase velocity values, the slope between every 2-8 data points was measured across the entire data range with the resulting values forming a new data set (BpsA velocity). The slope between every 2-8 points in the BpsA velocity data set was then determined using the slope function of Microsoft Excel and the maximum value from the resulting data set for each reaction taken as a measure of PPTase velocity. […]

B1: Sfp: PPTase of B. subtilis subsp. spizizenii ATCC6633 (protein, UniProt P39135 1-224, looked up)
4'-phosphopantetheinyl …: MKIYGIYMDRPLSQEENERFMSFISPEKREKCRRFYHKEDAHRTLLGDVLVRSVISRQYQLDKSDIRFSTQEYGKPCIPDLPDAHFNISHSGRWVICAFDSQPIGIDIEKTKPISLEIAKRFFSKTEYSDLLAKDKDEQTDYFYHLWSMKESFIKQEGKGLSLPLDSFSVRLHQDGQVSIELPDSHSPCYIKTYEVDPGYKMAVCAAHPDFPEDITMVSYEELL
kcat/Km: 3500 ± 830 M⁻¹ s⁻¹
